# Earlier results in patent publication US20040122033A1, “Combination therapy for the treatment of obesity” (priority 2002, published 2004).
# Some entries share one result that the patent states for a list of compounds. Some compounds share one range, which may span the group rather than tell each member.
# Settings: cited from earlier work; for weight loss of body weight for drug compared to placebo: monotherapy, literature studies
Structure (SMILES),weight loss of body weight for drug compared to placebo,reduction of body weight (over a 6 month or a 1 year period)
CC(C)CC(N(C)C)C1(c2ccc(Cl)cc2)CCC1 (stereo not shown) [sibutramine],5%-10%,less than 10%
CCN[C@@H](C)Cc1cccc(C(F)(F)F)c1 [dexfenfluramine],5%-10%,–
CC(C)(N)Cc1ccccc1 [phentermine],5%-10%,–
